These are yes or no findings as the source states them, for the method shown. Some binding calls cover weakened binding; strength is not graded here.

Chains of the proteins cited; added tags and fusions are not shown. Residues count along the entry.
UniProt O14793, residues 24-375: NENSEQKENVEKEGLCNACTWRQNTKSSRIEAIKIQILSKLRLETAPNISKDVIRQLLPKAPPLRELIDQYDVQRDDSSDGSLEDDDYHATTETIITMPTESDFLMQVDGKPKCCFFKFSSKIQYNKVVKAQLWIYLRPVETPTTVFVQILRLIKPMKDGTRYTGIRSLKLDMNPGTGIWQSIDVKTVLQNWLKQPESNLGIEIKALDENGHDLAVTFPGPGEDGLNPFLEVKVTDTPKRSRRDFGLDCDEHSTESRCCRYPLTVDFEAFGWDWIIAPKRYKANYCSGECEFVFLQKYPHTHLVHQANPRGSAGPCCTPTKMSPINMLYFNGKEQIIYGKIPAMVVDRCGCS

Here are results for 2 molecules from patent US20190365891A1.

The experiment concerns the target proMyostatin (proGDF8), species not stated for the assay (UniProt O14793). The experiment in a line: ForteBio Octet BLI, compared with parental Ab1.

B1: Ab3, affinity optimized variant of Ab1 (antibody, IgG4, V domains shown)
VH: QIQLVQSGGGVVQPGRSLRLSCAASGFAFSSYGMHWVRQAPGKGLEWVAVISYDGSIKYYADSVKGRFTISRDNSKNTLYLQMNSLRAEDTAVYYCARDLLVRFLEWSHKYGMDVWGQGTTVTVSS
VL: QPVLTQPPSASGTPGQRVTISCSGSTSNIGSNTVHWYQQLPGTAPKLLIYSDDQRPSGVPDRFSGSKSGTSASLVISGLQSDDEADYYCAAWDESLNGVFGGGTKLTVLG
As for B1, the binding result is “binds”.

B2: Ab5, affinity optimized variant of Ab1 (antibody, IgG4, V domains shown)
VH: QIQLVQSGGGVVQPGRSLRLSCAASGFAFSSYGMHWVRQAPGKGLEWVAVISYDGNNKYYADSVKGRFTISRDNSKNTLYLQMNSLRAEDTAVYYCARDLLVRFLEWSHKYGMDVWGQGTTVTVSS
VL: QPVLTQPPSASGTPGQRVTISCSGSSSNIGGNTVHWYQQLPGTAPKLLIYSDDQRPSGVPDRFSGSKSGTSASLVISGLQSDDEADYYCAAWDESLNGVFGGGTKLTVLG
On to B2, for which the binding entry is recorded as “binds”.
